Results are given in words; binding and its absence hold for the method and conditions named. In cells and extracts the contact can be indirect. A yes stands for co-enrichment or nearness to the bait. Other partners may have been found. A no says only that the protein was not detected with the bait. Where a sequence is shown, tags or fusion partners need not be part of it.

Sequences of proteins named here, by UniProt entry; tags and fusion partners are left off. A change or cut given only in a name is not applied to a line headed by its entry.
UniProt A0A509AC23: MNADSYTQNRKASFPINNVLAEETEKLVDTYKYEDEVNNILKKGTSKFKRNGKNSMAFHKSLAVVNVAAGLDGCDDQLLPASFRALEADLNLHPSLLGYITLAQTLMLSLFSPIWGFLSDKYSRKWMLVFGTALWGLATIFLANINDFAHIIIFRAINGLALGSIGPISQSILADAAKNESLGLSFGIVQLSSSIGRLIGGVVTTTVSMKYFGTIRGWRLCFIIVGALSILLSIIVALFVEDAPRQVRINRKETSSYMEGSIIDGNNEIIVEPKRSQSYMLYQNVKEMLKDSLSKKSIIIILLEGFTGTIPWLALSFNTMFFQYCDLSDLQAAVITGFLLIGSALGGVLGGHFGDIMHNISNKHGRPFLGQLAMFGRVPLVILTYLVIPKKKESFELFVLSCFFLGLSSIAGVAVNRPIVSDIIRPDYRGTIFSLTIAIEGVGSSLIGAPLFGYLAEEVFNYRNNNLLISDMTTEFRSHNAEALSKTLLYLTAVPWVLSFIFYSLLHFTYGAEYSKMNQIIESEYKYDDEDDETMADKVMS

The test addresses T1, claudin-like apicomplexan microneme protein (CLAMP) fused to a 3xFlag tag (P. berghei).
T1 sequence: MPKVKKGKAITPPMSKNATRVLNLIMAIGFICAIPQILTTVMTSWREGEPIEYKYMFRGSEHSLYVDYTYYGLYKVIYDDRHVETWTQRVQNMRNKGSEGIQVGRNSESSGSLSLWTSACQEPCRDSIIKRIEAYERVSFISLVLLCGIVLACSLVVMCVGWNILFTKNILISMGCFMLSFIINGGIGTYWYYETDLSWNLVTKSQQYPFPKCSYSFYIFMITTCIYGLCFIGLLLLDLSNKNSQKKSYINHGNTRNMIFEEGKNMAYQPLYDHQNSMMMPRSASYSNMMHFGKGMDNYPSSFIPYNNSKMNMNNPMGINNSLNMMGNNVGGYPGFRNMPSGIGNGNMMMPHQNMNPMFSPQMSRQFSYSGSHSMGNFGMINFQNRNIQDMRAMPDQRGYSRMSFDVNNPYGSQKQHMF
The test is described as follows: affinity purification with mass spectrometry; anti-FLAG M2 Affinity Gel IP of CLAMP-Flag, 2h at 4°C, from two independent lysates of untreated clampcKO salivary gland sporozoites (10mM Tris pH 7.5, 150mM NaCl, 0.5 mM EDTA, 0.5% NP40); control: untagged PbGFP sporozoite lysates; timsTOF PRO mass spectrometry.

With “elongation factor 1-alpha (PBANKA_1133300) (P. berghei (endogenous in sporozoites))”, the binding entry is “no binding”. With “putative pantothenate transporter (PAT, PBANKA_0303900) (from UniProt A0A509AC23)” the entry was “binds”.

B1: thrombospondin-related anonymous protein (TRAP, PBANKA_1349800) (protein, UniProt A0A509AST0 25-606)
chain: QEILDEIKYSEEVCNEQIDLHILLDGSGSIGHSNWISHVIPMLTTLVDNLNISRDEINISMTLFSTYARELVRLKRYGSTSKASLRFIIAQLQNNYSPHGTTNLTSALLNVDNLIQKKMNRPNAIQLVIILTDGIPNNLKKSTTVVNQLKKKDVNVAIIGVGAGVNNMFNRILVGCGKLGPCPYYSYGSWDQAQTMIKPFLSKVCQEVEKVALCGKWEEWSECSTTCDNGTKIRKRKVLHPNCAGEMTAPCKVRDCPPKPVAPPVIPIKVPDVPVKPVEPIEPAEPAEPAEPAEPAEPAEPAEPAEPAEPAEPAEPAEPAEPAEPAEPAEPAEPAEPAEPAKPAEPAEPAEPAEPAEPVNPDNPILPIKPEEPSGGAEPLNPEVENPFIIPDEPIEPIIAPGAVPDKPIIPEESNELPNNLPESPSDSQVEYPRPNDNGDNSNNTINSNKNIPNKHVPPTDDNPYKGQEERIPKPHRSNDEYIYYNNANNNDKLEPEIPSKDYEENKSKKQSKSNNGYKIAGGIIGGLAIIGCIGVGYNFIAGSSAAAMAGEAAPFEDVMADDEKGIVENEQFKLPEDNDWN
As to B1, the binding result was “binds”.

(Values after publication PMC10047546.)
